Reference: paper PMC11476264
Results are given in words; binding and its absence hold for the method and conditions named. Binding seen in cells or lysates may run through a third protein. Some binding calls cover weakened binding; strength is not graded here. Where a sequence is shown, tags or fusion partners need not be part of it.

B1: Flag-tagged ZEB1 (protein, UniProt P37275 1-1124)
chain: MADGPRCKRRKQANPRRNNVTNYNTVVETNSDSDDEDKLHIVEEESVTDAADCEGVPEDDLPTDQTVLPGRSSEREGNAKNCWEDDRKEGQEILGPEAQADEAGCTVKDDECESDAENEQNHDPNVEEFLQQQDTAVIFPEAPEEDQRQGTPEASGHDENGTPDAFSQLLTCPYCDRGYKRFTSLKEHIKYRHEKNEDNFSCSLCSYTFAYRTQLERHMTSHKSGRDQRHVTQSGCNRKFKCTECGKAFKYKHHLKEHLRIHSGEKPYECPNCKKRFSHSGSYSSHISSKKCISLIPVNGRPRTGLKTSQCSSPSLSASPGSPTRPQIRQKIENKPLQEQLSVNQIKTEPVDYEFKPIVVASGINCSTPLQNGVFTGGGPLQATSSPQGMVQAVVLPTVGLVSPISINLSDIQNVLKVAVDGNVIRQVLENNQANLASKEQETINASPIQQGGHSVISAISLPLVDQDGTTKIIINYSLEQPSQLQVVPQNLKKENPVATNSCKSEKLPEDLTVKSEKDKSFEGGVNDSTCLLCDDCPGDINALPELKHYDLKQPTQPPPLPAAEAEKPESSVSSATGDGNLSPSQPPLKNLLSLLKAYYALNAQPSAEELSKIADSVNLPLDVVKKWFEKMQAGQISVQSSEPSSPEPGKVNIPAKNNDQPQSANANEPQDSTVNLQSPLKMTNSPVLPVGSTTNGSRSSTPSPSPLNLSSSRNTQGYLYTAEGAQEEPQVEPLDLSLPKQQGELLERSTITSVYQNSVYSVQEEPLNLSCAKKEPQKDSCVTDSEPVVNVIPPSANPINIAIPTVTAQLPTIVAIADQNSVPCLRALAANKQTILIPQVAYTYSTTVSPAVQEPPLKVIQPNGNQDERQDTSSEGVSNVEDQNDSDSTPPKKKMRKTENGMYACDLCDKIFQKSSSLLRHKYEHTGKRPHECGICKKAFKHKHHLIEHMRLHSGEKPYQCDKCGKRFSHSGSYSQHMNHRYSYCKREAEERDSTEQEEAGPEILSNEHVGARASPSQGDSDERESLTREEDEDSEKEEEEEDKEMEELQEEKECEKPQGDEEEEEEEEEVEEEEVEEAENEGEEAKTEGLMKDDRAESQASSLGQKVGESSEQVSEEKTNEA
B2: Myc-tagged FBXO11 (protein, UniProt Q86XK2 1-927)
chain: MNSVRAANRRPRRVSRPRPVQQQQQQPPQQPPPQPPQQQPPQQQPPPPPQQQQQQQPPPPPPPPPPLPQERNNVGERDDDVPADMVAEESGPGAQNSPYQLRRKTLLPKRTACPTKNSMEGASTSTTENFGHRAKRARVSGKSQDLSAAPAEQYLQEKLPDEVVLKIFSYLLEQDLCRAACVCKRFSELANDPILWKRLYMEVFEYTRPMMHPEPGKFYQINPEEYEHPNPWKESFQQLYKGAHVKPGFAEHFYSNPARYKGRENMLYYDTIEDALGGVQEAHFDGLIFVHSGIYTDEWIYIESPITMIGAAPGKVADKVIIENTRDSTFVFMEGSEDAYVGYMTIRFNPDDKSAQHHNAHHCLEITVNCSPIIDHCIIRSTCTVGSAVCVSGQGACPTIKHCNISDCENVGLYITDHAQGIYEDNEISNNALAGIWVKNHGNPIIRRNHIHHGRDVGVFTFDHGMGYFESCNIHRNRIAGFEVKAYANPTVVRCEIHHGQTGGIYVHEKGRGQFIENKIYANNFAGVWITSNSDPTIRGNSIFNGNQGGVYIFGDGRGLIEGNDIYGNALAGIQIRTNSCPIVRHNKIHDGQHGGIYVHEKGQGVIEENEVYSNTLAGVWVTTGSTPVLRRNRIHSGKQVGVYFYDNGHGVLEDNDIYNHMYSGVQIRTGSNPKIRRNKIWGGQNGGILVYNSGLGCIEDNEIFDNAMAGVWIKTDSNPTLRRNKIHDGRDGGICIFNGGRGLLEENDIFRNAQAGVLISTNSHPILRKNRIFDGFAAGIEITNHATATLEGNQIFNNRFGGLFLASGVNVTMKDNKIMNNQDAIEKAVSRGQCLYKISSYTSYPMHDFYRCHTCNTTDRNAICVNCIKKCHQGHDVEFIRHDRFFCDCGAGTLSNPCTLAGEPTHDTDTLYDSAPPIESNTLQHN

What was measured:
[1] = biological target: T1, Myc-tagged FBXO11 (UniProt Q86XK2); test: co-IP; HEK293T co-transfected with Myc-tagged FBXO11 and Flag-tagged ZEB1; 10 μM MG132 for 6 h; RIPA lysate; immunoprecipitation with anti-Myc or anti-Flag antibody and protein A/G agarose at 4 °C; blotted with anti-ZEB1 and anti-FBXO11
T1 sequence: B2 chain

[2] = biological target: T2, His-tagged FBXO11 protein (UniProt Q86XK2); test: pull-down; His-tagged FBXO11 held on Ni-NTA beads, incubated with sonicated lysate of HEK293T cells transfected with ZEB1-Flag (50 mM NaH2PO4 pH 8, 300 mM NaCl, 10 mM imidazole); Western blot; only the target purified
T2 sequence: B2 chain

[3] = biological target: T3, His-tagged ZEB1 CZF domain truncated protein (UniProt P37275); test: pull-down; His-tagged ZEB1 truncated proteins held on Ni-NTA beads, incubated with sonicated lysate of HEK293T cells transfected with FBXO11-Myc (50 mM NaH2PO4 pH 8, 300 mM NaCl, 10 mM imidazole); Western blot; only the target purified
T3 sequence: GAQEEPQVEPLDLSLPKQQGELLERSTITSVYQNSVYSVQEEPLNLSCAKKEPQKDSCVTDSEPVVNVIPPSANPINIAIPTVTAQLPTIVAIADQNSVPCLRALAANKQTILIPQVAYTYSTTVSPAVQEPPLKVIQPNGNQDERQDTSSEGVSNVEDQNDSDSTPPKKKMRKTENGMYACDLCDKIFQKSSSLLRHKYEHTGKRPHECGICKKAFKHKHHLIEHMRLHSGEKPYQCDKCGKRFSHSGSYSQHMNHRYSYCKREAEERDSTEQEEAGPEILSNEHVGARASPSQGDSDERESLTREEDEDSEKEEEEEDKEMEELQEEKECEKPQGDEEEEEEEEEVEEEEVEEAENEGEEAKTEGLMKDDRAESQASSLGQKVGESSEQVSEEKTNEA

[4] = biological target: T4, Flag-tagged ZEB1 (UniProt P37275); test: co-IP; HEK293T co-transfected with Myc-tagged FBXO11 and Flag-tagged ZEB1; 10 μM MG132 for 6 h; RIPA lysate; immunoprecipitation with anti-Myc or anti-Flag antibody and protein A/G agarose at 4 °C; blotted with anti-ZEB1 and anti-FBXO11
T4 sequence: B1 chain

Binder	binding [1]	binding [2]	binding [3]	binding [4]
B1	binds	binds		
B2			binds	binds
